# Assay results from patent US20230330095A1, “PHARMACEUTICAL COMPOSITION FOR ANTI-CANCER COMPRISING NUPR1 ISOFORM A INHIBITOR” (SEOUL NATIONAL UNIVERSITY R&DB FOUNDATION, priority 2022, published 2023).
# System: GBM-37
# Experiment: cDNA microarray transcriptome analysis
# Type: cell-based, human
# Conditions: GBM-37, 100 nM 3dc
# Description: In addition, GBM-37 was treated with 100 nM of 3dc, and transcriptome changes were confirmed through cDNA microarray analysis.
structure (smiles),measurement,value
"FC(F)(F)c1ccc2c(c1)N(CCCCN1CCC(N3CCCC3)CC1)c1ccccc1S2 [3dc, 10-(4-(4-(pyrrolidin-1-yl)piperidin-1-yl)butyl)-2-(trifluoromethyl)-10H-phenothiazine]",genes down-regulated compared to the control group,2979 genes
same,genes up-regulated compared to the control group,70 genes
